In this assay the test system is BDF1 mice, P388 leukemia ip, median survival T/C. The experiment in a line: NCI In Vivo Anticancer Drug Screen. Data for tumor model P388 Leukemia (intraperitoneal) in B6D2F1 (BDF1) mice. The following applies: T/C endpoint: median survival time, higher T/C = longer survival. In short, it runs like this:
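Mice carrying the transplantable tumour receive compound or vehicle. Survival is followed in each arm, and the treated measure is divided by the vehicle measure.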

Setting [1] is: dose: 100.0 mg/kg/injection, schedule: Q04DX003 (ip), vehicle: saline with Tween-80.
The mark [2] stands for this setting: dose: 50.0 mg/kg/injection, schedule: Q01DX009 (ip), vehicle: saline with Tween-80.
[3] abbreviates: dose: 50.0 mg/kg/injection, schedule: Q01DX009 (ip), vehicle: other.
[4] abbreviates: dose: 25.0 mg/kg/injection, schedule: Q01DX009 (ip), vehicle: water.
Where [5] appears, read: dose: 400.0 mg/kg/injection, schedule: Q01DX009 (ip), vehicle: water.
The mark [6] stands for this setting: dose: 100.0 mg/kg/injection, schedule: Q04DX003 (ip), vehicle: saline.
[7] abbreviates: dose: 200.0 mg/kg/injection, schedule: Q04DX003 (ip), vehicle: saline.
[8] abbreviates: dose: 400.0 mg/kg/injection, schedule: Q01DX009 (ip), vehicle: saline with Tween-80.
Where [9] appears, read: dose: 100.0 mg/kg/injection, schedule: Q01DX009 (ip), vehicle: saline with Tween-80.

The list shows only some results of the screen, not a fair sample: it gathers tests that were run many times, whatever their T/C, doses with no T/C, and many T/C values between a quarter and a half above the control. Other doses and runs of a compound stand elsewhere. T/C gives the treated animals as a percentage of the vehicle group. Some entries give survivors of the animals treated and no T/C: the source holds a T/C of zero for them, seemingly a mark for toxic or unscored doses. Some survivor counts are full or nearly so, which does not show that the dose was tolerated: the source hardly ever lists a survival T/C far under the control, and the zero likely stands for such cases as well. Counts of survivors are from the toxicity check (mostly the fifth day) where no day follows; animals may have died later. Schedule codes are those of the source, taken here to give the interval after Q, in days (D) or hours (H), and the number of doses after X. Some molecules as drawn cover several salts, stereoisomers or complexes of the source; a dose is that of the sample tested. Where survival is the endpoint, this PubChem deposit counts one and a half times the control or more as active, and values a quarter to a half above the control carry no call in these data; other NCI protocols may use other cut-offs. Some T/C values are followed by the survivors on the day toxicity was checked, most often the fifth; without a count, all were alive then.

For the molecule `CC1CCC2(OC1)OC1C(O)C3C4CCC5CC(OC6OC(CO)C(OC7OC(CO)C(O)C(OC8OCC(O)C(O)C8O)C7OC7OC(CO)C(O)C(OC8OC(CO)C(O)C(O)C8O)C7O)C(O)C6O)C(O)CC5(C)C4CCC3(C)C1C2C` (configuration not stated), the survivor count is, setting by setting: under setting [1], 1 of 6; (dose: 200.0 mg/kg/injection, schedule: Q04DX003 (ip), vehicle: saline with Tween-80) 0 of 6; (dose: 400.0 mg/kg/injection, schedule: Q04DX003 (ip), vehicle: saline with Tween-80) 0 of 6.

Take `COc1cc(C=Nc2cccc(C(F)(F)F)c2)ccc1O`: the survivor count (dose: 400.0 mg/kg/injection, schedule: Q04DX003 (ip), vehicle: Klucel (hydroxypropylcellulose) (HPC)) is listed as 6 of 6.

Consider `CC(=O)Nc1c2sscc-2n(C)c1=O`, for which the survivor count runs as follows: (dose: 1.56 mg/kg/injection, schedule: Q01DX009 (ip), vehicle: saline with Tween-80) 1 of 6; (dose: 3.13 mg/kg/injection, schedule: Q01DX009 (ip), vehicle: saline with Tween-80) 1 of 6.

On to `CNC(=O)OCCN(CCOC(=O)NC)C(=O)N1c2ccccc2Sc2ccccc21`, for which, under setting [2], the T/C was 142 % of control.

Turning to `Cc1cc(NCCCNCCCNc2cc(C)nc3cc(N)ccc23)c2ccc(N)cc2n1`, the T/C is, setting by setting: (dose: 3.13 mg/kg/injection, schedule: Q01DX009 (ip), vehicle: other) 125 % of control; (dose: 6.25 mg/kg/injection, schedule: Q01DX009 (ip), vehicle: other) 131 % of control; (dose: 12.5 mg/kg/injection, schedule: Q01DX009 (ip), vehicle: other) 142 % of control [4 of 6 alive]. For the same molecule, the survivor count is, setting by setting: (dose: 25.0 mg/kg/injection, schedule: Q01DX009 (ip), vehicle: other) 0 of 6; under setting [3], 0 of 6.

Regarding `O=[N+]([O-])c1ccc(N2c3ccccc3SC2c2ccco2)c([N+](=O)[O-])c1` (configuration not stated), the survivor count is, setting by setting: (dose: 6.25 mg/kg/injection, schedule: Q01DX005 (ip), vehicle: saline with Tween-80) 5 of 5; (dose: 12.5 mg/kg/injection, schedule: Q01DX005 (ip), vehicle: saline with Tween-80) 5 of 5; (dose: 25.0 mg/kg/injection, schedule: Q01DX005 (ip), vehicle: saline with Tween-80) 3 of 5.

As for `c1ccc2c(c1)Cc1nc3ccccc3nc1-2`, the T/C (dose: 12.5 mg/kg/injection, schedule: Q01DX009 (ip), vehicle: water) is 126 % of control.

`CNCCN(C)CCN(C)Cc1ccc(OC)cc1`: the T/C was 129 % of control under setting [4]; 131 % of control (dose: 50.0 mg/kg/injection, schedule: Q01DX009 (ip), vehicle: water); 125 % of control (dose: 100.0 mg/kg/injection, schedule: Q01DX009 (ip), vehicle: water); 135 % of control under setting [5]. The survivor count by setting is: (dose: 400.0 mg/kg/injection, schedule: Q01DX009 (ip), vehicle: saline) 2 of 6; under setting [5], 0 of 6; (dose: 500.0 mg/kg/injection, schedule: Q01DX009 (ip), vehicle: water) 0 of 6.

Consider `c1cc(Nc2ccc(Nc3ccc(CN4CCCCC4)cc3)cc2)ccc1CN1CCCCC1`, for which the T/C runs as follows: under setting [3], 149 % of control; (dose: 100.0 mg/kg/injection, schedule: Q01DX009 (ip), vehicle: other) 133 % of control. Also, the survivor count (dose: 200.0 mg/kg/injection, schedule: Q01DX009 (ip), vehicle: other) is 0 of 6.

With `O=[N+]([O-])c1ccc(C2OC2c2ccccc2)cc1` (configuration not stated), the survivor count (dose: 200.0 mg/kg/injection, schedule: Q04DX003 (ip), vehicle: Klucel (hydroxypropylcellulose) (HPC)) is listed as 6 of 6.

In the case of `O=C1c2ccccc2CCC1(Br)C(Br)c1ccccc1` (configuration not stated), the T/C (dose: 200.0 mg/kg/injection, schedule: Q01DX001 (ip), vehicle: Klucel (hydroxypropylcellulose) (HPC)) was 133 % of control.

For the molecule `O=c1c2ccccc2c2nc3ccc4c(=O)c5ccccc5c5nc6ccc1c2c6c3c45`, the survivor count (dose: 200.0 mg/kg/injection, schedule: Q01DX005 (ip), vehicle: saline with Tween-80) is recorded as 5 of 5.

In the case of `O=C(O)C1CCCC2C(O)CCC(=O)C12` (configuration not stated), under setting [2], the survivor count is 0 of 6.

For the molecule `Nc1ccc(C(=O)Nc2ccc(N(CCCl)CCCl)cc2)cc1`, the T/C reads like this: (dose: 12.5 mg/kg/injection, schedule: Q04DX003 (ip), vehicle: saline) 135 % of control; (dose: 50.0 mg/kg/injection, schedule: Q01DX009 (ip), vehicle: saline) 137 % of control; (dose: 100.0 mg/kg/injection, schedule: Q01DX009 (ip), vehicle: saline) 129 % of control [5 of 6 alive]. In addition, the survivor count was 6 of 6 under setting [6]; 3 of 6 (dose: 150.0 mg/kg/injection, schedule: Q01DX009 (ip), vehicle: saline); 4 of 6 under setting [7].

As for `O=C(O)CSc1cc(-c2ccc(Cl)cc2)s[s+]1`, the survivor count reads like this: under setting [4], 5 of 6; (dose: 32.0 mg/kg/injection, schedule: Q04DX003 (ip), vehicle: water) 5 of 6.

`CCOc1cccc2c1C(=O)c1c(O)c3c(c(O)c1C2=O)C[C@@](O)(C(C)=O)C[C@@H]3OC1CC(N)C(O)C(C)O1` (some centres not stated): the T/C (dose: 12.5 mg/kg/injection, schedule: Q04DX003 (ip), vehicle: water) is 127 % of control and the T/C (dose: 25.0 mg/kg/injection, schedule: Q04DX003 (ip), vehicle: water) was 136 % of control. In addition, under “dose: 100.0 mg/kg/injection, schedule: Q04DX003 (ip), vehicle: water”, the survivor count is 2 of 6.

Consider `Cc1nc2nc(C(F)(F)F)[nH]c2nc1C`, for which the survivor count under setting [8] is 6 of 6.

In the case of `CC(=O)OCC1OC(n2ccc(N)nc2=O)C(OC(C)=O)C1OC(C)=O` (configuration not stated), the T/C by setting is: under setting [6], 129 % of control; under setting [7], 133 % of control; (dose: 400.0 mg/kg/injection, schedule: Q04DX003 (ip), vehicle: saline) 141 % of control. In addition, the survivor count under setting [8] was 5 of 6.

Turning to `O=c1oc2ccccc2c(O)c1C(C/C(=N/O)c1ccccc1)c1ccccc1` (configuration not stated), the survivor count under setting [2] was 6 of 6, the survivor count under setting [9] is reported as 6 of 6 and the survivor count under setting [1] is recorded as 6 of 6.

With `N#CC(Br)(CBr)COc1ccc(Cl)cc1Cl` (configuration not stated), the survivor count is 5 of 6 under setting [2]; 0 of 6 under setting [9]; 0 of 6 (dose: 200.0 mg/kg/injection, schedule: Q01DX009 (ip), vehicle: saline with Tween-80).
